Results deposited as PubChem BioAssay AID504764 (Drosophila RNAi Screening Center, 2011)
Test: 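Knock-downs that raise or lower a Notch target reporter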 (primary screen). Cells: Drosophila Kc167 cells. Reagent: long dsRNA against Drosophila genes. Timing: about 5 days (4 days dsRNA, then 24 h after transfection). Challenge: transfection of constitutively active membrane-tethered Notch lacking the extracellular domain, read 24 h later. Read-out: 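Light from a Notch-responsive E(spl)m3 luciferase reporter under active Notch, with control-promoter and no-Notch reporter wells to normalise; raw counts from paired wells a and b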. Direction: induced reporter light, run 1, well a and induced reporter light, run 1, well b: higher = more light from the Notch target reporter with active Notch; control promoter light, run 1, well a and control promoter light, run 1, well b: higher = more light from the viral control promoter (cell number, transfection, viability); uninduced reporter light, run 1, well a: higher = more light from the Notch target reporter without active Notch. Rule for the call: 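Wells with low control signal or poorly matching duplicates excluded; duplicates averaged; per source plate, z beyond ±2 for induced/control log2 ratio or beyond ±1.8 for induced/uninduced marks a hit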. Meaning of the calls: active = modifier hit (raised or lowered Notch signal); inactive = not a hit.
In all, the deposit lists about 22,000 reagents; shown is a random part of those that have a named target and a result. Of all reagents, 403 (1.9%) are marked active. 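Unnormalised raw counts per well; ratio z-scores behind the hit calls and whether each hit raises or lowers signal are not deposited.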 The numbers tell different reagents against one gene apart. Not given: the amount of reagent.

The opening 2 entries, ahead of the listing:
Eip74EF (Ecdysone-induced protein 74EF) #1
- induced reporter light, run 1, well a: 5950
- induced reporter light, run 1, well b: 5220
- control promoter light, run 1, well a: 3760
- control promoter light, run 1, well b: 3090
- uninduced reporter light, run 1, well a: 2510
- Outcome: inactive

Eip74EF (Ecdysone-induced protein 74EF) #2
- induced reporter light, run 1, well a: 95010
- induced reporter light, run 1, well b: 80170
- control promoter light, run 1, well a: 1.19e5
- control promoter light, run 1, well b: 99305
- uninduced reporter light, run 1, well a: 4860
- Outcome: inactive

Main list, from the start:
Eip74EF (Ecdysone-induced protein 74EF) #1
- induced reporter light, run 1, well a: 5950
- induced reporter light, run 1, well b: 5220
- control promoter light, run 1, well a: 3760
- control promoter light, run 1, well b: 3090
- uninduced reporter light, run 1, well a: 2510
- Outcome: inactive

Eip74EF (Ecdysone-induced protein 74EF) #2
- induced reporter light, run 1, well a: 95010
- induced reporter light, run 1, well b: 80170
- control promoter light, run 1, well a: 1.19e5
- control promoter light, run 1, well b: 99305
- uninduced reporter light, run 1, well a: 4860
- Outcome: inactive

Alg3 (ALG3, alpha-1,3- mannosyltransferase)
- induced reporter light, run 1, well a: 1.99e5
- induced reporter light, run 1, well b: 1.59e5
- control promoter light, run 1, well a: 1.47e5
- control promoter light, run 1, well b: 1.69e5
- uninduced reporter light, run 1, well a: 14275
- Outcome: inactive

Vti1a (Vesicle transport through interaction with t-SNAREs 1a)
- induced reporter light, run 1, well a: 1.10e5
- induced reporter light, run 1, well b: 1.00e5
- control promoter light, run 1, well a: 1.72e5
- control promoter light, run 1, well b: 1.74e5
- uninduced reporter light, run 1, well a: 8715
- Outcome: inactive

CG14074
- induced reporter light, run 1, well a: 1.67e5
- induced reporter light, run 1, well b: 1.25e5
- control promoter light, run 1, well a: 2.50e5
- control promoter light, run 1, well b: 1.90e5
- uninduced reporter light, run 1, well a: 11670
- Outcome: inactive

ND-B17 (NADH dehydrogenase (ubiquinone) B17 subunit)
- induced reporter light, run 1, well a: 96855
- induced reporter light, run 1, well b: 91720
- control promoter light, run 1, well a: 1.16e5
- control promoter light, run 1, well b: 1.43e5
- uninduced reporter light, run 1, well a: 7630
- Outcome: inactive

chinmo (Chronologically inappropriate morphogenesis) #1
- induced reporter light, run 1, well a: 1.95e5
- induced reporter light, run 1, well b: 2.08e5
- control promoter light, run 1, well a: 1.84e5
- control promoter light, run 1, well b: 1.98e5
- uninduced reporter light, run 1, well a: 17905
- Outcome: inactive

chinmo (Chronologically inappropriate morphogenesis) #2
- induced reporter light, run 1, well a: 2.12e5
- induced reporter light, run 1, well b: 1.71e5
- control promoter light, run 1, well a: 1.41e5
- control promoter light, run 1, well b: 1.67e5
- uninduced reporter light, run 1, well a: 12385
- Outcome: inactive

chinmo (Chronologically inappropriate morphogenesis) #3
- induced reporter light, run 1, well a: 93045
- induced reporter light, run 1, well b: 1.09e5
- control promoter light, run 1, well a: 69070
- control promoter light, run 1, well b: 55515
- uninduced reporter light, run 1, well a: 8585
- Outcome: inactive

chinmo (Chronologically inappropriate morphogenesis) #4
- Outcome: active

CG4653
- induced reporter light, run 1, well a: 1.58e5
- induced reporter light, run 1, well b: 2.12e5
- control promoter light, run 1, well a: 1.51e5
- control promoter light, run 1, well b: 95010
- uninduced reporter light, run 1, well a: 12250
- Outcome: inactive

PIG-Wa (Phosphatidylinositol glycan anchor biosynthesis class W a)
- induced reporter light, run 1, well a: 1.26e5
- induced reporter light, run 1, well b: 1.11e5
- control promoter light, run 1, well a: 1.15e5
- control promoter light, run 1, well b: 79030
- uninduced reporter light, run 1, well a: 10435
- Outcome: inactive

CG8034
- induced reporter light, run 1, well a: 1.04e5
- induced reporter light, run 1, well b: 1.12e5
- control promoter light, run 1, well a: 1.16e5
- control promoter light, run 1, well b: 80500
- uninduced reporter light, run 1, well a: 10445
- Outcome: inactive

Ank2 (Ankyrin 2) #1
- induced reporter light, run 1, well a: 1.36e5
- induced reporter light, run 1, well b: 1.36e5
- control promoter light, run 1, well a: 1.76e5
- control promoter light, run 1, well b: 1.73e5
- uninduced reporter light, run 1, well a: 11005
- Outcome: inactive

Ank2 (Ankyrin 2) #2
- induced reporter light, run 1, well a: 2.30e5
- induced reporter light, run 1, well b: 2.10e5
- control promoter light, run 1, well a: 1.93e5
- control promoter light, run 1, well b: 1.90e5
- uninduced reporter light, run 1, well a: 10480
- Outcome: inactive

Ank2 (Ankyrin 2) #3
- induced reporter light, run 1, well a: 2.23e5
- induced reporter light, run 1, well b: 2.33e5
- control promoter light, run 1, well a: 3.63e5
- control promoter light, run 1, well b: 2.32e5
- uninduced reporter light, run 1, well a: 10120
- Outcome: inactive

Ank2 (Ankyrin 2) #4
- induced reporter light, run 1, well a: 2.85e5
- induced reporter light, run 1, well b: 2.31e5
- control promoter light, run 1, well a: 2.28e5
- control promoter light, run 1, well b: 2.38e5
- uninduced reporter light, run 1, well a: 9950
- Outcome: inactive

CG4998 #1
- induced reporter light, run 1, well a: 2.35e5
- induced reporter light, run 1, well b: 2.30e5
- control promoter light, run 1, well a: 2.09e5
- control promoter light, run 1, well b: 2.20e5
- uninduced reporter light, run 1, well a: 10630
- Outcome: inactive

CG4998 #2
- Outcome: inactive
